Among all 1,700 compounds or so, about 15 (0.9%) were called active.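 The calls were made as follows: active = fluorescence response below the plate's average for near-maximal glutamate wells, less 3 SD of those wells; inactive = the rest.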 This is a selection; strong and weak results do not stand in their true shares.

For this experiment, the target named is Metabotropic glutamate receptor 4 (Homo sapiens) (UniProt Q14833). As to the kind of experiment: human mGluR4 response to M1 antagonist hits, M1 allosteric modulator project, cell-based, antagonist mode, secondary assay 1 (AID 678).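 Also: raw unnormalized fluorescence span taken in the window right after glutamate addition.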 To be noted: CHO-mGluR4 calcium flux, Fluo-4 fluorescence, glutamate EC80; at 10 µM; hits give low values.
Take `CCOC(=O)C1SC2(C(F)(F)C(F)F)CC1(O)c1c(c(OC)c3occc3c1OC)O2` (stereo unspecified): the fluorescence response (max-min) was inactive: 232.

For the origin of these results see PubChem BioAssay AID678 (Vanderbilt High Throughput Screening Facility, 2007).
